# Some of the results follow.
# Protein sequences, listed by entry. Tags and fused reporters are not part of them. Lines headed by an entry give the natural chain unless they say otherwise; changes in a name come on top.
# UniProt P31949: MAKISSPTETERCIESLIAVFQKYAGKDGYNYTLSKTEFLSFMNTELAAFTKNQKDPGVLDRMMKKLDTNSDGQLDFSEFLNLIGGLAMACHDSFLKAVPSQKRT
# UniProt P29034: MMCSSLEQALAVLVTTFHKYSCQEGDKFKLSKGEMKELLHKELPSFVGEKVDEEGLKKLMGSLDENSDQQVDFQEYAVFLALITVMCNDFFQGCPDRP
# UniProt P21817: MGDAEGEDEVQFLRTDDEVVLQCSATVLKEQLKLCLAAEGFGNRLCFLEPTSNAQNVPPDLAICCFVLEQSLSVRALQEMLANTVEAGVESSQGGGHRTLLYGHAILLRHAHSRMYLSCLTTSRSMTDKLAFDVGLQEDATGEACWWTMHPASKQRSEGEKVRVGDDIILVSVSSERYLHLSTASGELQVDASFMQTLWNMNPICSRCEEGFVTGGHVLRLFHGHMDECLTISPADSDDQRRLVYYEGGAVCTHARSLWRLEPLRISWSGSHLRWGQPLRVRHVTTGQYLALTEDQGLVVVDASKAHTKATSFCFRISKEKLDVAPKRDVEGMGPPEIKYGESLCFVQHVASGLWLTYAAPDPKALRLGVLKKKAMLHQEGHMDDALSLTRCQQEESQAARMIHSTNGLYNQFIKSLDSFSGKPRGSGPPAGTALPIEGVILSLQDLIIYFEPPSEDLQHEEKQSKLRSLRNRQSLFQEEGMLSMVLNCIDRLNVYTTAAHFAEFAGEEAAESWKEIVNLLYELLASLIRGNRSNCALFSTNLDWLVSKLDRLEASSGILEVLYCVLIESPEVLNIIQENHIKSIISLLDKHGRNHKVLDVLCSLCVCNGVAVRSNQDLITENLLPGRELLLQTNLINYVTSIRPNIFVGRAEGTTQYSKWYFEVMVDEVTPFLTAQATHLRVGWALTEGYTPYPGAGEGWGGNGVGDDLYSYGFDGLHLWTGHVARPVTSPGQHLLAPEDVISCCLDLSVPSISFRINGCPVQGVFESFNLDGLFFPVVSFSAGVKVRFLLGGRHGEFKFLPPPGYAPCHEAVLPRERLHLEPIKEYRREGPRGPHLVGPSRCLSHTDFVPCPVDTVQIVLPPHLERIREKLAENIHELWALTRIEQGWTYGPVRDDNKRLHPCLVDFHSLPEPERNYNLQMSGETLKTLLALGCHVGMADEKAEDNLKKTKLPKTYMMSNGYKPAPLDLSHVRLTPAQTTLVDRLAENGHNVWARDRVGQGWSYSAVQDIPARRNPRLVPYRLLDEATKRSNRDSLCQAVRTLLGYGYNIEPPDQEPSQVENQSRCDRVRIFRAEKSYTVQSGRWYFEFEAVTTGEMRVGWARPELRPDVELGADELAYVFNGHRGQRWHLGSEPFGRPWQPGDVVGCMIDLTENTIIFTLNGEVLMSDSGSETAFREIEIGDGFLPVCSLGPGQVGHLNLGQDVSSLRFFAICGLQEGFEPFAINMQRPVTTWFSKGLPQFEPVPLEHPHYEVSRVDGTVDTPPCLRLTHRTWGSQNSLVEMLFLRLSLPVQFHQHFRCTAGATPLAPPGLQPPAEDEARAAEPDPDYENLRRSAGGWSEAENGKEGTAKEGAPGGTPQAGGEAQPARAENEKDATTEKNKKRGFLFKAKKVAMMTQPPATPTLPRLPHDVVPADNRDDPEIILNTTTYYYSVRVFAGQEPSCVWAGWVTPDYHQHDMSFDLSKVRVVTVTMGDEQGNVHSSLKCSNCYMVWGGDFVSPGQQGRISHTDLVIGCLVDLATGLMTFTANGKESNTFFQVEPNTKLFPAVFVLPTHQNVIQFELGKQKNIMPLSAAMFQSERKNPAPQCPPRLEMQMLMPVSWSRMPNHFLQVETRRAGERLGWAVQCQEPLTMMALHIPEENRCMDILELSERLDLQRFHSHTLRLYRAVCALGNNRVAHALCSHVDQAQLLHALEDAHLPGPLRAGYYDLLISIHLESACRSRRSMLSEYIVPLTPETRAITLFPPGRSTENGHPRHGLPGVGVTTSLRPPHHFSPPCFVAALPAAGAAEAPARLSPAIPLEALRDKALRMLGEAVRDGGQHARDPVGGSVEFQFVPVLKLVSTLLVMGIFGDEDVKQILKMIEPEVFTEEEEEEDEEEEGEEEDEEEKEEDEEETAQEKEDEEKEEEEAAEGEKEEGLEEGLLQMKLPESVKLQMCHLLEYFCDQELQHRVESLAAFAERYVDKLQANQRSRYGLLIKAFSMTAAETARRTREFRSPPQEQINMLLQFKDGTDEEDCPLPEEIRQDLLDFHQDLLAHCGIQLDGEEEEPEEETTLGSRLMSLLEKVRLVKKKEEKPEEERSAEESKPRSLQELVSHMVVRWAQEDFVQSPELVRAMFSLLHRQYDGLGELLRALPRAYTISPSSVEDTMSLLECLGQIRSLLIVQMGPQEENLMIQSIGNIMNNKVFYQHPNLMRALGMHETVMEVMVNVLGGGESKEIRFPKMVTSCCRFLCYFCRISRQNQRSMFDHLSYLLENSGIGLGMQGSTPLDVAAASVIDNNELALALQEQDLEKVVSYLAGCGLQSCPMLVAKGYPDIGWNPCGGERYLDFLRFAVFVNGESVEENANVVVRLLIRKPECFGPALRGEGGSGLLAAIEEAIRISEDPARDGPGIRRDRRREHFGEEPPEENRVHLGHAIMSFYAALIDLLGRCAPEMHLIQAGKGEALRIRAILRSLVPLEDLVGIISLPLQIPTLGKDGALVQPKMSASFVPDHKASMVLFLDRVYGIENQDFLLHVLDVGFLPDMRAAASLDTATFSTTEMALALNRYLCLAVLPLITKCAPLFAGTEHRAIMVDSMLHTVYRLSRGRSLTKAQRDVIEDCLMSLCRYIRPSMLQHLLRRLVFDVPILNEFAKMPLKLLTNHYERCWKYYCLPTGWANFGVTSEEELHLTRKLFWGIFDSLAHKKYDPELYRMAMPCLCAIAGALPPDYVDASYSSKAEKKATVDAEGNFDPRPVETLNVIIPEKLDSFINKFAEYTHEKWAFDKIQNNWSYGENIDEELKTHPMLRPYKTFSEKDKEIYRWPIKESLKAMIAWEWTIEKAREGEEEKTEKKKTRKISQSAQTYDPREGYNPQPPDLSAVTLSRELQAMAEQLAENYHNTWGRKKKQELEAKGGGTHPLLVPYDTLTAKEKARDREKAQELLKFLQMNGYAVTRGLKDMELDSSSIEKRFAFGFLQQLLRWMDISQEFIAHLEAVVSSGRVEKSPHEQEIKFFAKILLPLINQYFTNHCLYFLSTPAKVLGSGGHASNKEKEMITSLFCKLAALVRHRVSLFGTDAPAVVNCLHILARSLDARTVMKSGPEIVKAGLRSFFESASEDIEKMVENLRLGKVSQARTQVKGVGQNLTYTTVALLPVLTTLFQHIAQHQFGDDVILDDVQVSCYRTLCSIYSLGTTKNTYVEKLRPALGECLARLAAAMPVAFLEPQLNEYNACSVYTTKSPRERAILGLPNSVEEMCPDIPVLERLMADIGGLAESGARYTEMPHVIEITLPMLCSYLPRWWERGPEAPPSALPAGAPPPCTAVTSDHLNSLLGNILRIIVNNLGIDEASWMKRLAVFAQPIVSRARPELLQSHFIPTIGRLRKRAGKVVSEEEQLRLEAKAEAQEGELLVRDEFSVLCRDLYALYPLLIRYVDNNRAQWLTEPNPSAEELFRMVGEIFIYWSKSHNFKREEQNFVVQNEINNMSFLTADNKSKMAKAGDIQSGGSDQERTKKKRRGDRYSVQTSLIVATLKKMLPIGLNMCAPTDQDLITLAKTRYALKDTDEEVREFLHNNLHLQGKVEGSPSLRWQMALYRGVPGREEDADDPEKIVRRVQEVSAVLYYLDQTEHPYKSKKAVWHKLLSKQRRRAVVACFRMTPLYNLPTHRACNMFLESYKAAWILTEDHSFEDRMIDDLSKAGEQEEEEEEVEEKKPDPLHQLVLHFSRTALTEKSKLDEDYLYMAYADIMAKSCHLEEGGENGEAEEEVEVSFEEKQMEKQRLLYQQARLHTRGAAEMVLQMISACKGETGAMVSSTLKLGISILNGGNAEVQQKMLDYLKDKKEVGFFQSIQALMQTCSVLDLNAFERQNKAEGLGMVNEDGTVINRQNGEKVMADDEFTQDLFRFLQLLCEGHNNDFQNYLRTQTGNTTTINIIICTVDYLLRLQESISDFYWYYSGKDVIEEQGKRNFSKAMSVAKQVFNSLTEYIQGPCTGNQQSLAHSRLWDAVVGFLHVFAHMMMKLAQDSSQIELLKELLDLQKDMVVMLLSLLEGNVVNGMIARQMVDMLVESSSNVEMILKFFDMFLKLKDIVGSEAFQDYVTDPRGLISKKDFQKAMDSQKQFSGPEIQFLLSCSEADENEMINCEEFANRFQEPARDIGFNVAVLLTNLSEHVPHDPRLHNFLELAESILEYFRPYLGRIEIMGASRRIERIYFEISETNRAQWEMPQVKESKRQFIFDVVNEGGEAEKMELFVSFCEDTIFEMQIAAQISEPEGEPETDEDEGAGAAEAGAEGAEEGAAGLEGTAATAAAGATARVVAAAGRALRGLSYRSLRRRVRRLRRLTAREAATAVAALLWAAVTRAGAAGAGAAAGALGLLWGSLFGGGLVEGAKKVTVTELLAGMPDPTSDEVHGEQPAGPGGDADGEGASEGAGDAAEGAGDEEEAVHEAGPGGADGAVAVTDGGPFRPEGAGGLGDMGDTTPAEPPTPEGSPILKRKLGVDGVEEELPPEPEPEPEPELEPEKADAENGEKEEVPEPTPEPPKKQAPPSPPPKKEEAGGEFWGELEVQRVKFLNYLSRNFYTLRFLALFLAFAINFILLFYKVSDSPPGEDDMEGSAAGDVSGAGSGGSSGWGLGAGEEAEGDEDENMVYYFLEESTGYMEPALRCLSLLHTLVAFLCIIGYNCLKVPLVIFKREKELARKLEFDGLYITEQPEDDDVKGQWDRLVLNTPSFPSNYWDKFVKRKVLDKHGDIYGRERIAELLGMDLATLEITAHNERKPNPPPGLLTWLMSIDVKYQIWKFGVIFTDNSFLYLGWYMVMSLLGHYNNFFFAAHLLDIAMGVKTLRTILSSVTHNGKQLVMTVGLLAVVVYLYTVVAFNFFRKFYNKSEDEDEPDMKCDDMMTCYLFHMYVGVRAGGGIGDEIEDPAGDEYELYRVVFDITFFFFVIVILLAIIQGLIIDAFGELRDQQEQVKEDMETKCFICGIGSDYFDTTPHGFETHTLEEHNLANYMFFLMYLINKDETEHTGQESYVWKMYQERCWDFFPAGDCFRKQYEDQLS
# UniProt P78345: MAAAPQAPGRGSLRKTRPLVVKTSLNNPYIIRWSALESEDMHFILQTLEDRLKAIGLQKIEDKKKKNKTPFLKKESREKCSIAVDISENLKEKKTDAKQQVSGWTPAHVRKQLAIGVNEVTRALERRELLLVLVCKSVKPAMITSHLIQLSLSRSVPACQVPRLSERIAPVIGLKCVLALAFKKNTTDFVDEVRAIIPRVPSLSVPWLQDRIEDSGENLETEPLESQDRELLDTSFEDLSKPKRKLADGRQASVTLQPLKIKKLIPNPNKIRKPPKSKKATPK
# UniProt P51812, whole entry, looked up: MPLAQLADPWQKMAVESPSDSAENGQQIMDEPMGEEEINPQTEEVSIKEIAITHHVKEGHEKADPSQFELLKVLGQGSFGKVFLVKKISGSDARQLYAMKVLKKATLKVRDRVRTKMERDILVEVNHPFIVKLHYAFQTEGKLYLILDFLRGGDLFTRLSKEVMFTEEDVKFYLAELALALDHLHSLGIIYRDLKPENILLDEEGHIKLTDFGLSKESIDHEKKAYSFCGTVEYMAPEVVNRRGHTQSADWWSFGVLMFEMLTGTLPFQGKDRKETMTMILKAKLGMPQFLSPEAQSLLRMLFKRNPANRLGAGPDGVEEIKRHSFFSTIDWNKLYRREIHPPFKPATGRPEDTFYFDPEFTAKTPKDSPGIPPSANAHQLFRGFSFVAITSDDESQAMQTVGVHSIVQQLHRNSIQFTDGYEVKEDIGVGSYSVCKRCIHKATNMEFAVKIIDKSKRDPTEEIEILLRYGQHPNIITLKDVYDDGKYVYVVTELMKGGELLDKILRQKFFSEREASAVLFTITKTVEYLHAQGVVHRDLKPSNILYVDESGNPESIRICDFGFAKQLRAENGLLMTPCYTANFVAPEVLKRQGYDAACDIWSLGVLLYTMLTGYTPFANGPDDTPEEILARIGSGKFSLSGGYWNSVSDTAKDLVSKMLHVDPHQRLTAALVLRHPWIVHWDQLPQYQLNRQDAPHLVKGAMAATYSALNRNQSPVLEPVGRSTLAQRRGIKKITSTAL
# UniProt Q9Y3A4: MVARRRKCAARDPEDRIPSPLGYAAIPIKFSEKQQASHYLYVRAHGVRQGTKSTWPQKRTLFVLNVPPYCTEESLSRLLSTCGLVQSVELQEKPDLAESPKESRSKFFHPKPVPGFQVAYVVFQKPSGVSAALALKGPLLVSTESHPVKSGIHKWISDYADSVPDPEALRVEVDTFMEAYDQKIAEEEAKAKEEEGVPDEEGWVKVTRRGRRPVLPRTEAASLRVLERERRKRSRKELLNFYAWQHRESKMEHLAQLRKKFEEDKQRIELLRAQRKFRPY
# Compound: CC1=C(C=C(C=C1)NC(=O)C2=CC(=CC=C2)N(C)C)NC(=O)C3=CC=C(C=C3)O
# Assay: log2 fold change, soluble protein after heating vs DMSO (PISA); higher = thermal stabilisation; K562 lysate, 10 uM; active = over 0.2 and 3.5 SD of the protein, either way, in both replicates (recomputed)
# How it was run: (§1)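 The values are log-two fold changes in thermal stability compared with solvent controls and come from duplicates. They were obtained by TMTpro 16plex LC-MS/MS, with channel sums equalised, on the supernatant after 21,000xg for 90 min. That supernatant came from crude K562 extract at 1 mg/mL protein treated with 10 μM compound for 30 min, heated for 3 min across 48°C-58°C, pooled and brought to 0.5% NP-40 at 4°C.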
row,Target,log2 fold change
1,RRN3 (UniProt Q9NYV6),inactive: -0.018
2,S100A10 (UniProt P60903),inactive: 0.817
3,RUFY3 isoform 2 (UniProt Q7L099),inactive: -0.153
4,RTL10 (UniProt Q7L3V2),inactive: -0.05
5,RPS6KA1 (UniProt Q15418),inactive: -0.052
6,RUVBL1 (UniProt Q9Y265),inactive: -0.02

# Compound: CC1=CC=C(C=C1)SC2=C3C=C(SC3=CN=C2)C(=O)N
# Assay: as above
# How it was run: as §1
row,Target,log2 fold change
1,RPS27L (UniProt Q71UM5),inactive: 0.067
2,RTTN (UniProt Q86VV8),inactive: 0.112
3,S100A11 (UniProt P31949),inactive: 0.037
4,RTCA (UniProt O00442),inactive: -0.008
5,S100A2 (UniProt P29034),inactive: -0.107
6,RSRC2 (UniProt Q7L4I2),inactive: -0.028
7,RYR1 (UniProt P21817),inactive: 0.013
8,RSAD1 (UniProt Q9HA92),inactive: -0.099
9,RPP14 (UniProt O95059),inactive: 0.008
10,RPS26 (UniProt P62854),inactive: 0.06
11,RPP38 (UniProt P78345),inactive: -0.021
12,RWDD2B (UniProt P57060),inactive: 0.006
13,RREB1 isoform 2 (UniProt Q92766),inactive: 0.103
14,RPP25L (UniProt Q8N5L8),inactive: -0.095
15,RSF1 (UniProt Q96T23),inactive: -0.026
16,"RPS7, A0A2R8Y623",inactive: -0.017
17,S100A14 (UniProt Q9HCY8),inactive: -0.001
18,RPS6KA3 (UniProt P51812),inactive: -0.039
19,RXRB isoform 3 (UniProt P28702),inactive: -0.109
20,RSBN1L (UniProt Q6PCB5),inactive: -0.03
21,RPN2 (UniProt P04844),inactive: -0.017
22,RPS2 (UniProt P15880),inactive: 0.033
23,RPS3A (UniProt P61247),inactive: 0.055
24,RRP7A (UniProt Q9Y3A4),inactive: -0.035
25,RPS24 isoform 4 (UniProt P62847),inactive: 0.016
26,RRN3 (UniProt Q9NYV6),inactive: 0.081
27,RUFY3 isoform 2 (UniProt Q7L099),inactive: 0.008
28,RPS6KA1 (UniProt Q15418),inactive: -0.023
29,RUVBL1 (UniProt Q9Y265),inactive: 0.011
30,S100A16 (UniProt Q96FQ6),inactive: 0.002

# From the supplement of paper PMC10849652
